Test [1] deals with T1, full length TRIM14 ORF tagged at the C-terminus with 3xFLAG (human) (UniProt Q14142).
T1 sequence: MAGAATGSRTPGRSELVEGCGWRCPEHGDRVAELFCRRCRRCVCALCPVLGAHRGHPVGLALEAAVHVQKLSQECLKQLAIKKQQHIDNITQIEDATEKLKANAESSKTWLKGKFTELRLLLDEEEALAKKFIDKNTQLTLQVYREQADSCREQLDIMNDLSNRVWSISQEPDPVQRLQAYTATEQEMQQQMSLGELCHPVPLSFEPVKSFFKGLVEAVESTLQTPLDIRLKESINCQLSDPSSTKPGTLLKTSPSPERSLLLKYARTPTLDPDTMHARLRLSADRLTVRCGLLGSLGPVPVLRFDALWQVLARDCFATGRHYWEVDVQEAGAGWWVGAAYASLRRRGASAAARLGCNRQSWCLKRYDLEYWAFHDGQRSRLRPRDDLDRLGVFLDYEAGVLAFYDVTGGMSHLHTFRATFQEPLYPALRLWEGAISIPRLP
Put plainly: co-IP; HEK293T whole-cell extracts, FLAG-TRIM14 immunoprecipitated with anti-FLAG antibody, endogenous partners detected by blot; empty FLAG vector as control.

By UniProt entry, the sequences of proteins in these tests, tags left out. Where a name states a change or a piece, a line headed by the entry shows the natural chain unless it says otherwise.
UniProt O95831: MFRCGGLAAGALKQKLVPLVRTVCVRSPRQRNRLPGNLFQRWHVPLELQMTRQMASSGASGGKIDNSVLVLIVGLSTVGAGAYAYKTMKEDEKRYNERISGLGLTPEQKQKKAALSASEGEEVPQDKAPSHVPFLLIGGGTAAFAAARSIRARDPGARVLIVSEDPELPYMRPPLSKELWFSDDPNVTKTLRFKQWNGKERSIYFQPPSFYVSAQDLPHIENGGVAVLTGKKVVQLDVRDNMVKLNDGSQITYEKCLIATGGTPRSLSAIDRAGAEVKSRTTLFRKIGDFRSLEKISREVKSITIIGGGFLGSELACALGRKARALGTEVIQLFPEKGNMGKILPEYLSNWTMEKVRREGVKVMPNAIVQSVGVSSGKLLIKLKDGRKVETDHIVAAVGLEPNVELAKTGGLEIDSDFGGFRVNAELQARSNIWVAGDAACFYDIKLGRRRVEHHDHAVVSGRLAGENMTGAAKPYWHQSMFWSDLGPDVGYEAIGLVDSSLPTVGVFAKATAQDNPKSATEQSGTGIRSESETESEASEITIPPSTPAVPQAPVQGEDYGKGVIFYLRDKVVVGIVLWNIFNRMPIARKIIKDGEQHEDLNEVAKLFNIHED

Test [2] deals with Apoptosis-inducing factor 1, mitochondrial (human (endogenous in HEK293T)) (UniProt O95831). Put plainly: co-IP; HEK293T cells, endogenous proteins; immunoprecipitation with anti-AIF antibody, blot for TRIM14.

These are yes or no findings as the source states them, for the method shown. In cells and extracts the contact can be indirect. Binding calls can cover weak binding; strength is not graded here. For some assays here: Tags and fused reporters may be left off the sequences shown.

For the molecule “Apoptosis-inducing factor 1, mitochondrial (from UniProt O95831)”, the binding result in test [1] was “binds”.

B1: endogenous TRIM14 (protein, UniProt Q14142 1-442)
chain: T1 sequence
As to B1, the binding result in test [2] was “binds”.

For the origin of these results see publication PMC5216374.
